At least one compound was matched to its structure with a doubt left.
Test system: 16HBE14o-cells
Assay: Doxycycline-inducible β1 expression, immunoblot in 16HBE14o- cells
Type: cell-based, human
Experimental: Primary rat alveolar epithelial type II cells were isolated using an IgG-panning approach as described by Dobbs (74). Briefly, lungs from Sprague Dawley rats (200-250 g) were surgically removed and perfused, lavaged, and treated with 1 mg/ml of elastase (WORTHINGTON BIOCHEMICAL, Lakewood, N.J.) to release the epithelial cells. Next, lung lobes were separated, cut, minced, filtered and spin down at 1500 rpm for 15 minutes. The cells were resuspended with DMEM without FBS and transferred into two IgG plates. After incubation at 37° C. for one hour, non-adhered cells (predominately ATII cells) were transferred to a new tube and centrifuged at 1500 rpm for 15 minutes. […]
Cells were lysed with reporter lysis buffer (lx, PROMEGA), supplemented with protease inhibitor (COMPLETE, Mini, EDTA-free tablets; ROCHE, Basel, Switzerland) and phosphatase inhibitor (PHOSSTOP Phosphatase Inhibitor Cocktail; ROCHE, Basel, Switzerland). […] After incubation with secondary antibody and development, bands were detected on film (BIOMAX MR film; […] HEALTH, Rochester, N.Y.) or using the CHEMIDOC IMAGING SYSTEM (BIO-RAD, Hercules, Calif.) and quantified using the IMAGE STUDIO™ LITE software (LI-COR, Lincoln, Nebr.) or the IMAGE LAB SOFTWARE (BIO-RAD, Hercules, Calif.).
Given that the β1 subunit increased protein expressions of tight junctions in ATI cells, their localization in these cells was analyzed. […]

C[C@H]1c2cccc(O)c2C(=O)C2=C(O)[C@]3(O)C(=O)C(C(N)=O)=C(O)[C@@H](N(C)C)[C@@H]3[C@@H](O)[C@@H]21 [doxycycline]
expressions of occludin and zo-1 (16HBE14o- cells after doxycycline induction of β1 subunit): increased | β1 subunit expression (immunoblot) (pCMV-tet + pTet3G-human β1, doxycycline 0, 1, 10, 100, 1000 ng/ml, 24 hours post transfection): dose-dependent upregulation

Reference: patent publication US20220062391A1, “ENHANCING EPITHELIAL OR ENDOTHELIAL BARRIER FUNCTION” (UNIVERSITY OF ROCHESTER, priority 2019, published 2022)
